Reference: the supplement of paper PMC12823440, “Inhibitors supercharge kinase turnover through native proteolytic circuits” (Nature, 2025)
Structures can show the parent of a compound that is named as a salt. The list shows a part of the results. Hit calls seldom repeat between salt and free forms of one compound.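 Kinases were expressed as nanoluciferase fusions in K562 cells and luminescence was read every 4 h between 2 and 18 h as percent of control, DMSO set to 100% and a positive control to 0%. A time point counts as decreased when the signal drops significantly (2 sigma). The hit call is the authors' own, does not follow from the count of time points alone, and its rule is not shown.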

Sequences of proteins named here, by UniProt entry; tags and fusion partners are left off. A change or cut given only in a name is not applied to a line headed by its entry.
UniProt P49137, whole entry, looked up: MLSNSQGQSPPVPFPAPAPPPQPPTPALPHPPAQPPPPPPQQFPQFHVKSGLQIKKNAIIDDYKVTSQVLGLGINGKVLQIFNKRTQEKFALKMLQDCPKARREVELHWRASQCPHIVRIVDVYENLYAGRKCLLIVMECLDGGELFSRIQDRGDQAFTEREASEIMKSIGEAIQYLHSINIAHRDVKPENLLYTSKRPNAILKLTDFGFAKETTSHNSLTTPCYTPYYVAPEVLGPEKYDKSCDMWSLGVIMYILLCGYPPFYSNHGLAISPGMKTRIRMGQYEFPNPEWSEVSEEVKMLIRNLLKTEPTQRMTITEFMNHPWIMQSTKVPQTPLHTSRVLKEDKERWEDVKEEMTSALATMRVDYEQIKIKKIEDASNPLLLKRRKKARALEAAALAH
UniProt Q15118, whole entry, looked up: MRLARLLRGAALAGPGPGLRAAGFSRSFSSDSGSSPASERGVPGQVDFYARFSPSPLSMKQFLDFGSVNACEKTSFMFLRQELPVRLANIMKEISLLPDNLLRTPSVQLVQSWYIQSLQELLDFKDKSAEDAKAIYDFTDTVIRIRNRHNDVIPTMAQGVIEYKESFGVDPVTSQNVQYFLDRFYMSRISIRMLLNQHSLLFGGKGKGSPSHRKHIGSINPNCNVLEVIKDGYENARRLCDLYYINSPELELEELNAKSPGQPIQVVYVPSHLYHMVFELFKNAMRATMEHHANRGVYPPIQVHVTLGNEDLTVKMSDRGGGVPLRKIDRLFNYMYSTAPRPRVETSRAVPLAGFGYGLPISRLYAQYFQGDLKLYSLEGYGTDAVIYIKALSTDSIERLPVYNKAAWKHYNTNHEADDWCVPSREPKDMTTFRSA
UniProt O15530: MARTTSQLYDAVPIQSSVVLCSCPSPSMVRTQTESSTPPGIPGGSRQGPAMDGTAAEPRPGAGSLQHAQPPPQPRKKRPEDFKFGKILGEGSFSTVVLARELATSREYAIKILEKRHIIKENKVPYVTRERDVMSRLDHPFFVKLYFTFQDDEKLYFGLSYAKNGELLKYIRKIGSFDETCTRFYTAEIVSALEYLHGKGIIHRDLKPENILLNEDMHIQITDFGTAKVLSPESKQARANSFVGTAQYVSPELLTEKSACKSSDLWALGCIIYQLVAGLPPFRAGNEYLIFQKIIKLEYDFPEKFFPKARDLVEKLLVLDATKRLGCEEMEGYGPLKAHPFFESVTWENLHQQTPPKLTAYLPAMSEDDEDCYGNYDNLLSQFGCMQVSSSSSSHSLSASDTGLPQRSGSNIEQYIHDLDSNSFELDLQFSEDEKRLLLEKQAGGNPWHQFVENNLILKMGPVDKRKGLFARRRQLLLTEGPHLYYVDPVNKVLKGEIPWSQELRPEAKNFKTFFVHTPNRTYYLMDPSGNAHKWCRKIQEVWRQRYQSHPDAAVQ
UniProt P42356, whole entry, looked up: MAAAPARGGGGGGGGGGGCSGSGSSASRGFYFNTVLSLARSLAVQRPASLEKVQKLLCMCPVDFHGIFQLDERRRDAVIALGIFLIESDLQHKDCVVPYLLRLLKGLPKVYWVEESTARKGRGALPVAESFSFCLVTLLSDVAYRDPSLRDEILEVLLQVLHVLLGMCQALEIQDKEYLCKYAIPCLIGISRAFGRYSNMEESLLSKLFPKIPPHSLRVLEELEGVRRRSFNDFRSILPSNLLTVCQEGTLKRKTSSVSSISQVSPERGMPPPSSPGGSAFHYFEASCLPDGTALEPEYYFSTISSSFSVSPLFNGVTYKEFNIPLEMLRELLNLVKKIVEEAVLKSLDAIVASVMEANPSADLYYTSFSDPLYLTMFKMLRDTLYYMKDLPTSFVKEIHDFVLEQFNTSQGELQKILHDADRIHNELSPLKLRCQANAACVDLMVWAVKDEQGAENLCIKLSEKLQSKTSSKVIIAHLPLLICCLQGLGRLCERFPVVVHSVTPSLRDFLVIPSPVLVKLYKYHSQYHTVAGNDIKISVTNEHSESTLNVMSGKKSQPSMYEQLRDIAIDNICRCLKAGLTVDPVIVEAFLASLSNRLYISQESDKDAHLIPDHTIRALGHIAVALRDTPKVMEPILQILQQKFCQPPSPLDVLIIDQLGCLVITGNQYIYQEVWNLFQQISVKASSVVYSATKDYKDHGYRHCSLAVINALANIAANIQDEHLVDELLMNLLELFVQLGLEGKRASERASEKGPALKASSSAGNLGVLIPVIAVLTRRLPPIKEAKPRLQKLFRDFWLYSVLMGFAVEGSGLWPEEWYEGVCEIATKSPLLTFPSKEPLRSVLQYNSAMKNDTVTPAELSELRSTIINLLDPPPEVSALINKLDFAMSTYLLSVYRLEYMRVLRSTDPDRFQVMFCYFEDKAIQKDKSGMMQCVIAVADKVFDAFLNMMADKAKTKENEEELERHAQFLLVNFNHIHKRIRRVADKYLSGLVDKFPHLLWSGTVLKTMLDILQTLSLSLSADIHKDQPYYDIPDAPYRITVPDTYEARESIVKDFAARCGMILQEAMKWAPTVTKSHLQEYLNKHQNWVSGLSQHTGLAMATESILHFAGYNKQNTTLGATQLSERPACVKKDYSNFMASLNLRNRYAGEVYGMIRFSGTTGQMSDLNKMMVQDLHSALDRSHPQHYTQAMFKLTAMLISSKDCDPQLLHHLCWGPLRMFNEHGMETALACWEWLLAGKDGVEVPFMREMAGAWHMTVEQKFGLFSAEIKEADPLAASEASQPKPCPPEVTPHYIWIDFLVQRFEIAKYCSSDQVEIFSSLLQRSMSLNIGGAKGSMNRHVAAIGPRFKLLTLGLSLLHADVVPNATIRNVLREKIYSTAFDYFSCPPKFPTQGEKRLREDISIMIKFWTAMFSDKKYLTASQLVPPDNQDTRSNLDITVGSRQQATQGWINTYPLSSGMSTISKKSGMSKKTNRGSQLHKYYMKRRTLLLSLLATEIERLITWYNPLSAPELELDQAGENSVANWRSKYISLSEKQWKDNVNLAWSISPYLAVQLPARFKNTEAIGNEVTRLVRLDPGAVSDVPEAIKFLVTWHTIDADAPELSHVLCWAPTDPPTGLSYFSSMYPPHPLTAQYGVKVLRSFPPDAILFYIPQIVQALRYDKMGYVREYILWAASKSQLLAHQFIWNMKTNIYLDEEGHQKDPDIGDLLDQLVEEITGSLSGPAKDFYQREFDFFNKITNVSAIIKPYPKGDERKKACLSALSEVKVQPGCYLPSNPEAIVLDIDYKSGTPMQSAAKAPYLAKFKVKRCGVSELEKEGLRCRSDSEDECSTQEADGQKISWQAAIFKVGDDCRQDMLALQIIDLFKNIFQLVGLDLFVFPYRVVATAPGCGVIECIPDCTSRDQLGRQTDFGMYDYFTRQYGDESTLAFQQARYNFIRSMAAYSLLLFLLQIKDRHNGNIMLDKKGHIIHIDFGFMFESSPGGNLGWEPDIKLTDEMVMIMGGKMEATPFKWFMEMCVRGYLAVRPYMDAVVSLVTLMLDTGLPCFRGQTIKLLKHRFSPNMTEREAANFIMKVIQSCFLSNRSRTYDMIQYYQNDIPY
UniProt Q9UBF8: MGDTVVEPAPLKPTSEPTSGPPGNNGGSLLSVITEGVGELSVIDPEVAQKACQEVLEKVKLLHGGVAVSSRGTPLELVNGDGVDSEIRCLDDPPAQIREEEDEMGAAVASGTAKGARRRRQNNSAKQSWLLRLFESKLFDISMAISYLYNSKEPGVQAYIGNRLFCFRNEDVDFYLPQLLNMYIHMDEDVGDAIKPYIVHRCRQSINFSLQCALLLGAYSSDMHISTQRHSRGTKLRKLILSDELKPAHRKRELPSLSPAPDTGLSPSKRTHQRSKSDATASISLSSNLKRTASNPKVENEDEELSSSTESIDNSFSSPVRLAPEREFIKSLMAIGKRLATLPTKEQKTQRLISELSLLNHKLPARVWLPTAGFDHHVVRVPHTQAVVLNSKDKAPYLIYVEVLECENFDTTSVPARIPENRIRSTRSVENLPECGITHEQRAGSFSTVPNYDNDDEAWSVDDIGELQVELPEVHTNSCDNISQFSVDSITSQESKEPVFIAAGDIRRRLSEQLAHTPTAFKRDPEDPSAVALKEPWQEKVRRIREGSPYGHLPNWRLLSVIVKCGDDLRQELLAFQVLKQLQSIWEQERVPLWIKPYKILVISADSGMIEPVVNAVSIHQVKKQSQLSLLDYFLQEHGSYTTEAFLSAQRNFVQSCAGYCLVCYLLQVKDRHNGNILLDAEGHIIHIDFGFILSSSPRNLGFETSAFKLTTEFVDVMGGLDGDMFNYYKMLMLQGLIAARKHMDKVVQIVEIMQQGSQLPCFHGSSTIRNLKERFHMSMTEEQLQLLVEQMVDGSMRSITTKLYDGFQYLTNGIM
UniProt P53350, whole entry: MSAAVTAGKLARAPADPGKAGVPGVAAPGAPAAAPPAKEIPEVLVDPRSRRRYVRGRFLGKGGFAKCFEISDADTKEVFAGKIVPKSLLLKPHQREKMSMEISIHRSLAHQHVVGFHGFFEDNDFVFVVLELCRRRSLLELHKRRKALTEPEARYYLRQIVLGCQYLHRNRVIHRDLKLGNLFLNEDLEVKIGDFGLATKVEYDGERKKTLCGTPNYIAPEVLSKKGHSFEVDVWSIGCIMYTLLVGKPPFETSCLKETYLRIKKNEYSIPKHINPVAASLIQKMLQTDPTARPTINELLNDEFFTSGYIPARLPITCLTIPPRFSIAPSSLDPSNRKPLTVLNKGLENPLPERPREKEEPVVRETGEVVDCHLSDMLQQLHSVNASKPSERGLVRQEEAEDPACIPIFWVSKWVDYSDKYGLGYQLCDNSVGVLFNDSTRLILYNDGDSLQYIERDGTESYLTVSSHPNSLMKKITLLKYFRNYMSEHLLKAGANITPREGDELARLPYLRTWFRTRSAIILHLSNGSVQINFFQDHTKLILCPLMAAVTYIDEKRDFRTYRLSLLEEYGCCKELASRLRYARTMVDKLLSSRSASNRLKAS
UniProt Q13131: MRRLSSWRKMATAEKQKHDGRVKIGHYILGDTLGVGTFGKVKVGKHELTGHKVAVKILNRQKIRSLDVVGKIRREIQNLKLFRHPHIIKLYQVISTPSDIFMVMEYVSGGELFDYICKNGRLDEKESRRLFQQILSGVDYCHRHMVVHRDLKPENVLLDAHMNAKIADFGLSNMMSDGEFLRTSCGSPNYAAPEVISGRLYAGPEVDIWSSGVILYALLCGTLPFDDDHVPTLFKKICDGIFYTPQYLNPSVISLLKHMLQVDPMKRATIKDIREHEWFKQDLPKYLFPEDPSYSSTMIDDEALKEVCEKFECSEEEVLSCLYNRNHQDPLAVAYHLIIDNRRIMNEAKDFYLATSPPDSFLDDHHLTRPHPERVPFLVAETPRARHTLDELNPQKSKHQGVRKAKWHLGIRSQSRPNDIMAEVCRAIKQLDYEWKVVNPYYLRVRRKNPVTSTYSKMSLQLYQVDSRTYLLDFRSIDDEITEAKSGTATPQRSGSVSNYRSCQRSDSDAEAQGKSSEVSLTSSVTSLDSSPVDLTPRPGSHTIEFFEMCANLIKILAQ
UniProt Q14289, whole entry, looked up: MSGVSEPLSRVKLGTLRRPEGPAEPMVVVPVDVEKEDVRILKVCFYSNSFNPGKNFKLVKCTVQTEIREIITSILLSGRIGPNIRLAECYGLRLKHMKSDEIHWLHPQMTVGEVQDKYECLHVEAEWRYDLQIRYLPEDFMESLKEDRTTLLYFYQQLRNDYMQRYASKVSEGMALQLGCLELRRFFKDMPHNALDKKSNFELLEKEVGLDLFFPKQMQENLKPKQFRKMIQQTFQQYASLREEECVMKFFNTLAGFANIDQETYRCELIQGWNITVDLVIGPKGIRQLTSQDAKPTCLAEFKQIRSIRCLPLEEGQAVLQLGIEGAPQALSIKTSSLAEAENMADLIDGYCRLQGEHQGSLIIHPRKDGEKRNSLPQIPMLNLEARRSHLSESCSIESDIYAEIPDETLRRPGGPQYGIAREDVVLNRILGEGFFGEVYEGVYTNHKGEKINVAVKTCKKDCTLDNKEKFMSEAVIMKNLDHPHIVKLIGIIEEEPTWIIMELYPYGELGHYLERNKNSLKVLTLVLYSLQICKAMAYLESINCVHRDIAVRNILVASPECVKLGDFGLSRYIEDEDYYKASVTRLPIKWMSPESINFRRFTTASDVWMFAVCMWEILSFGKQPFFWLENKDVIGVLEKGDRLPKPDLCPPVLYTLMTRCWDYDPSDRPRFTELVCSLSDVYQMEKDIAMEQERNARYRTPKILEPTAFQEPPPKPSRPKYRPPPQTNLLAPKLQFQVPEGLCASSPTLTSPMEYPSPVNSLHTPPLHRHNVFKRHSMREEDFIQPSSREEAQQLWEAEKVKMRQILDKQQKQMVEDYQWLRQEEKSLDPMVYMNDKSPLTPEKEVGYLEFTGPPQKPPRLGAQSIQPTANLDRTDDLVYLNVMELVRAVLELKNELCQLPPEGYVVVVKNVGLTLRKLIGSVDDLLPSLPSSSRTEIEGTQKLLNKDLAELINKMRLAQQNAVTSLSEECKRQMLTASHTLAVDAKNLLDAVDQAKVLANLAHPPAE

Assays:
Assay in all cases: kinase-Nluc reporter destabilization hit call (1 = scored as downregulated) (binary); higher = compound decreases kinase abundance
Conditions in all cases: K562, 2-18 h
MAPK1 = MAPK1 (UniProt P28482)
MAPK4 = MAPK4 (UniProt P31152)
MAPKAPK2 = MAPKAPK2 (UniProt P49137)
MKNK1 = MKNK1 (UniProt Q9BUB5)
NTRK2 = NTRK2 (UniProt Q16620)
NTRK3 = NTRK3 (UniProt Q16288)
PAK4 = PAK4 (UniProt O96013)
PBK = PBK (UniProt Q96KB5)
PDGFRB = PDGFRB (UniProt P09619)
PDK1 = PDK1 (UniProt Q15118)
PDPK1 = PDPK1 (UniProt O15530)
PIK4CA = PIK4CA (UniProt P42356)
PIK4CB = PIK4CB (UniProt Q9UBF8)
PLK1 = PLK1 (UniProt P53350)
PRKAA1 = PRKAA1 (UniProt Q13131)
PRKCA = PRKCA (UniProt P17252)
PTK2 = PTK2 (UniProt Q05397)
PTK2B = PTK2B (UniProt Q14289)
RAF1 = RAF1 (UniProt P04049)
[1] = target: RAF1_S257L (clone: RAF1_mut) (UniProt P04049)

Measured: kinase-Nluc reporter destabilization hit call

O=c1ncn2nc(Sc3ccc(F)cc3F)ccc2c1-c1c(Cl)cccc1Cl [Neflamapimod]
inactive: MAPK1; 10 µM 0 | MAPK4; 10 µM 0 | MAPKAPK2; 10 µM 0 | MKNK1; 10 µM 0 | NTRK2; 10 µM 0 | NTRK3; 10 µM 0 | PAK4; 10 µM 0 | PBK; 10 µM 0 | PDGFRB; 10 µM 0 | PDK1; 10 µM 0 | PDPK1; 10 µM 0 | PIK4CA; 10 µM 0 | PIK4CB; 10 µM 0 | PLK1; 10 µM 0 | PRKAA1; 10 µM 0 | PRKCA; 10 µM 0 | PTK2; 10 µM 0 | PTK2B; 10 µM 0 | RAF1; 10 µM 0 | [1]; 10 µM 0

COc1ccc(-c2cc(C(=O)NN=C(C)c3ccc(OC)c(OC)c3)[nH]n2)cc1
inactive: MAPK1; 10 µM 0 | MAPK4; 10 µM 0 | MAPKAPK2; 10 µM 0 | MKNK1; 10 µM 0 | NTRK2; 10 µM 0 | NTRK3; 10 µM 0 | PAK4; 10 µM 0 | PBK; 10 µM 0 | PDGFRB; 10 µM 0 | PDK1; 10 µM 0 | PDPK1; 10 µM 0 | PIK4CA; 10 µM 0 | PIK4CB; 10 µM 0 | PLK1; 10 µM 0 | PRKAA1; 10 µM 0 | PRKCA; 10 µM 0 | PTK2; 10 µM 0 | PTK2B; 10 µM 0 | RAF1; 10 µM 0 | [1]; 10 µM 0

C=CC(=O)N1CCC([C@@H]2CCNc3c(C(N)=O)c(-c4ccc(Oc5ccccc5)cc4)nn32)CC1 [Zanubrutinib]
inactive: MAPK1; 10 µM 0 | MAPK4; 10 µM 0 | MAPKAPK2; 10 µM 0 | MKNK1; 10 µM 0 | NTRK2; 10 µM 0 | NTRK3; 10 µM 0 | PAK4; 10 µM 0 | PBK; 10 µM 0 | PDGFRB; 10 µM 0 | PDK1; 10 µM 0 | PDPK1; 10 µM 0 | PIK4CA; 10 µM 0 | PIK4CB; 10 µM 0 | PLK1; 10 µM 0 | PRKAA1; 10 µM 0 | PRKCA; 10 µM 0 | PTK2; 10 µM 0 | PTK2B; 10 µM 0 | RAF1; 10 µM 0 | [1]; 10 µM 0

NCCNc1ncc(C(N)=O)c(Nc2cccc(C(F)(F)F)c2)n1 [Syk Inhibitor II]
inactive: MAPK1; 10 µM 0 | MAPK4; 10 µM 0 | MAPKAPK2; 10 µM 0 | MKNK1; 10 µM 0 | NTRK2; 10 µM 0 | NTRK3; 10 µM 0 | PAK4; 10 µM 0 | PBK; 10 µM 0 | PDGFRB; 10 µM 0 | PDK1; 10 µM 0 | PDPK1; 10 µM 0 | PIK4CA; 10 µM 0 | PIK4CB; 10 µM 0 | PLK1; 10 µM 0 | PRKAA1; 10 µM 0 | PRKCA; 10 µM 0 | PTK2; 10 µM 0 | PTK2B; 10 µM 0 | RAF1; 10 µM 0 | [1]; 10 µM 0

COc1cc2ncnc(Nc3ccc(F)c(Cl)c3)c2cc1OCCCN1CCOCC1 [Gefitinib]
inactive: MAPK1; 10 µM 0 | MAPK4; 10 µM 0 | MAPKAPK2; 10 µM 0 | MKNK1; 10 µM 0 | NTRK2; 10 µM 0 | NTRK3; 10 µM 0 | PAK4; 10 µM 0 | PBK; 10 µM 0 | PDGFRB; 10 µM 0 | PDK1; 10 µM 0 | PDPK1; 10 µM 0 | PIK4CA; 10 µM 0 | PIK4CB; 10 µM 0 | PLK1; 10 µM 0 | PRKAA1; 10 µM 0 | PRKCA; 10 µM 0 | PTK2; 10 µM 0 | PTK2B; 10 µM 0 | RAF1; 10 µM 0 | [1]; 10 µM 0

Nc1nc(Nc2ccc(S(N)(=O)=O)cc2)nn1C(=O)c1c(F)cccc1F
inactive: MAPK1; 2.5 µM 0 | MAPK4; 2.5 µM 0 | MAPKAPK2; 2.5 µM 0 | MKNK1; 2.5 µM 0 | NTRK2; 2.5 µM 0 | NTRK3; 2.5 µM 0 | PAK4; 2.5 µM 0 | PBK; 2.5 µM 0 | PDGFRB; 2.5 µM 0 | PDK1; 2.5 µM 0 | PDPK1; 2.5 µM 0 | PIK4CA; 2.5 µM 0 | PIK4CB; 2.5 µM 0 | PLK1; 2.5 µM 0 | PRKAA1; 2.5 µM 0 | PRKCA; 2.5 µM 0 | PTK2; 2.5 µM 0 | PTK2B; 2.5 µM 0 | RAF1; 2.5 µM 0 | [1]; 2.5 µM 0

C[C@H]1CN(C2COC2)CCN1c1ccc(Nc2cc(-c3ccnc(N4CCn5c(cc6c5CC(C)(C)C6)C4=O)c3CO)cn(C)c2=O)nc1 [Fenebrutinib]
inactive: MAPK1; 10 µM 0 | MAPK4; 10 µM 0 | MAPKAPK2; 10 µM 0 | MKNK1; 10 µM 0 | NTRK2; 10 µM 0 | NTRK3; 10 µM 0 | PAK4; 10 µM 0 | PBK; 10 µM 0 | PDGFRB; 10 µM 0 | PDK1; 10 µM 0 | PDPK1; 10 µM 0 | PIK4CA; 10 µM 0 | PIK4CB; 10 µM 0 | PLK1; 10 µM 0 | PRKAA1; 10 µM 0 | PRKCA; 10 µM 0 | PTK2; 10 µM 0 | PTK2B; 10 µM 0 | RAF1; 10 µM 0 | [1]; 10 µM 0

2 neighbouring entries from above:
COc1cc2ncnc(Nc3ccc(F)c(Cl)c3)c2cc1OCCCN1CCOCC1 [Gefitinib]
inactive: MAPK1; 10 µM 0 | MAPK4; 10 µM 0 | MAPKAPK2; 10 µM 0 | MKNK1; 10 µM 0 | NTRK2; 10 µM 0 | NTRK3; 10 µM 0 | PAK4; 10 µM 0 | PBK; 10 µM 0 | PDGFRB; 10 µM 0 | PDK1; 10 µM 0 | PDPK1; 10 µM 0 | PIK4CA; 10 µM 0 | PIK4CB; 10 µM 0 | PLK1; 10 µM 0 | PRKAA1; 10 µM 0 | PRKCA; 10 µM 0 | PTK2; 10 µM 0 | PTK2B; 10 µM 0 | RAF1; 10 µM 0 | [1]; 10 µM 0

Nc1nc(Nc2ccc(S(N)(=O)=O)cc2)nn1C(=O)c1c(F)cccc1F
inactive: MAPK1; 2.5 µM 0 | MAPK4; 2.5 µM 0 | MAPKAPK2; 2.5 µM 0 | MKNK1; 2.5 µM 0 | NTRK2; 2.5 µM 0 | NTRK3; 2.5 µM 0 | PAK4; 2.5 µM 0 | PBK; 2.5 µM 0 | PDGFRB; 2.5 µM 0 | PDK1; 2.5 µM 0 | PDPK1; 2.5 µM 0 | PIK4CA; 2.5 µM 0 | PIK4CB; 2.5 µM 0 | PLK1; 2.5 µM 0 | PRKAA1; 2.5 µM 0 | PRKCA; 2.5 µM 0 | PTK2; 2.5 µM 0 | PTK2B; 2.5 µM 0 | RAF1; 2.5 µM 0 | [1]; 2.5 µM 0

Following part:

C=CC(=O)Nc1cc2c(Nc3ccc(F)c(Cl)c3)ncnc2cc1OCCCN1CCOCC1 [Canertinib (dihydrochloride)]
inactive: MAPK1; 2.5 µM 0 | MAPK4; 2.5 µM 0 | MAPKAPK2; 2.5 µM 0 | MKNK1; 2.5 µM 0 | NTRK2; 2.5 µM 0 | NTRK3; 2.5 µM 0 | PAK4; 2.5 µM 0 | PBK; 2.5 µM 0 | PDGFRB; 2.5 µM 0 | PDK1; 2.5 µM 0 | PDPK1; 2.5 µM 0 | PIK4CA; 2.5 µM 0 | PIK4CB; 2.5 µM 0 | PLK1; 2.5 µM 0 | PRKAA1; 2.5 µM 0 | PRKCA; 2.5 µM 0 | PTK2; 2.5 µM 0 | PTK2B; 2.5 µM 0 | RAF1; 2.5 µM 0 | [1]; 2.5 µM 0

C[C@@H]1CN(C(=O)Nc2ccc(-c3nc(N4CCOCC4)c4cnn(CCCCCCC(=O)NO)c4n3)cc2)CCO1 [HDACs/mTOR Inhibitor 1]
inactive: MAPK1; 10 µM 0 | MAPK4; 10 µM 0 | MAPKAPK2; 10 µM 0 | MKNK1; 10 µM 0 | NTRK2; 10 µM 0 | NTRK3; 10 µM 0 | PAK4; 10 µM 0 | PBK; 10 µM 0 | PDGFRB; 10 µM 0 | PDK1; 10 µM 0 | PDPK1; 10 µM 0 | PIK4CA; 10 µM 0 | PIK4CB; 10 µM 0 | PLK1; 10 µM 0 | PRKAA1; 10 µM 0 | PRKCA; 10 µM 0 | PTK2; 10 µM 0 | PTK2B; 10 µM 0 | RAF1; 10 µM 0 | [1]; 10 µM 0
